In article PMC4643306:
No constants are given. Whether binding was seen depends on the method and setting. In cells and extracts the contact can be indirect. Binding calls can cover weak binding; strength is not graded here.

Chains of the proteins cited; added tags and fusions are not shown. Lines headed by an entry give the natural chain unless they say otherwise; changes in a name come on top.
UniProt Q13107: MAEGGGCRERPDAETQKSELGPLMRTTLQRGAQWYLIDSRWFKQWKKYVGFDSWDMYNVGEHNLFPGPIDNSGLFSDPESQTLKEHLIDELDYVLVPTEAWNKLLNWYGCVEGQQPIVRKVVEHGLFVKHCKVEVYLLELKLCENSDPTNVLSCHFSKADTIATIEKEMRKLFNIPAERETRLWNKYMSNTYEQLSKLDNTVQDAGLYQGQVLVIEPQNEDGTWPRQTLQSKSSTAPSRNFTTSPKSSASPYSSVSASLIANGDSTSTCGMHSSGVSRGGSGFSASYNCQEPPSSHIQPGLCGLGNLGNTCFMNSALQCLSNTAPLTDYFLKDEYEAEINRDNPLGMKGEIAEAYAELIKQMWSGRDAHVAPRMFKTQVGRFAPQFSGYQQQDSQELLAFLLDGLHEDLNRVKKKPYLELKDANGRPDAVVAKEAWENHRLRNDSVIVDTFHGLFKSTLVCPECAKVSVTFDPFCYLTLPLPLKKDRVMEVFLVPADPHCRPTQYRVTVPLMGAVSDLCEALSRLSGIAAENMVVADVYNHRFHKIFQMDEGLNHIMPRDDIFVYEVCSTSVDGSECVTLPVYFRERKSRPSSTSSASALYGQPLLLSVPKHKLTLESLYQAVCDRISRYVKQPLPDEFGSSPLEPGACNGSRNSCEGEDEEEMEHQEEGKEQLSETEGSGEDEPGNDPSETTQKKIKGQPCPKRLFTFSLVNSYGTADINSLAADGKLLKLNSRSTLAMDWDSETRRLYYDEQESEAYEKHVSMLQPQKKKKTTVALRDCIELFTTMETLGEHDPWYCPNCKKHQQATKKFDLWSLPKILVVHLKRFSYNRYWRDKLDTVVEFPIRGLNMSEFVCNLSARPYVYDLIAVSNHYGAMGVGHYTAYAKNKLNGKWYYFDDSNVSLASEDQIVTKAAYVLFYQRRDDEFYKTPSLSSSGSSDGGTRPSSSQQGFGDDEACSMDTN
UniProt Q92878: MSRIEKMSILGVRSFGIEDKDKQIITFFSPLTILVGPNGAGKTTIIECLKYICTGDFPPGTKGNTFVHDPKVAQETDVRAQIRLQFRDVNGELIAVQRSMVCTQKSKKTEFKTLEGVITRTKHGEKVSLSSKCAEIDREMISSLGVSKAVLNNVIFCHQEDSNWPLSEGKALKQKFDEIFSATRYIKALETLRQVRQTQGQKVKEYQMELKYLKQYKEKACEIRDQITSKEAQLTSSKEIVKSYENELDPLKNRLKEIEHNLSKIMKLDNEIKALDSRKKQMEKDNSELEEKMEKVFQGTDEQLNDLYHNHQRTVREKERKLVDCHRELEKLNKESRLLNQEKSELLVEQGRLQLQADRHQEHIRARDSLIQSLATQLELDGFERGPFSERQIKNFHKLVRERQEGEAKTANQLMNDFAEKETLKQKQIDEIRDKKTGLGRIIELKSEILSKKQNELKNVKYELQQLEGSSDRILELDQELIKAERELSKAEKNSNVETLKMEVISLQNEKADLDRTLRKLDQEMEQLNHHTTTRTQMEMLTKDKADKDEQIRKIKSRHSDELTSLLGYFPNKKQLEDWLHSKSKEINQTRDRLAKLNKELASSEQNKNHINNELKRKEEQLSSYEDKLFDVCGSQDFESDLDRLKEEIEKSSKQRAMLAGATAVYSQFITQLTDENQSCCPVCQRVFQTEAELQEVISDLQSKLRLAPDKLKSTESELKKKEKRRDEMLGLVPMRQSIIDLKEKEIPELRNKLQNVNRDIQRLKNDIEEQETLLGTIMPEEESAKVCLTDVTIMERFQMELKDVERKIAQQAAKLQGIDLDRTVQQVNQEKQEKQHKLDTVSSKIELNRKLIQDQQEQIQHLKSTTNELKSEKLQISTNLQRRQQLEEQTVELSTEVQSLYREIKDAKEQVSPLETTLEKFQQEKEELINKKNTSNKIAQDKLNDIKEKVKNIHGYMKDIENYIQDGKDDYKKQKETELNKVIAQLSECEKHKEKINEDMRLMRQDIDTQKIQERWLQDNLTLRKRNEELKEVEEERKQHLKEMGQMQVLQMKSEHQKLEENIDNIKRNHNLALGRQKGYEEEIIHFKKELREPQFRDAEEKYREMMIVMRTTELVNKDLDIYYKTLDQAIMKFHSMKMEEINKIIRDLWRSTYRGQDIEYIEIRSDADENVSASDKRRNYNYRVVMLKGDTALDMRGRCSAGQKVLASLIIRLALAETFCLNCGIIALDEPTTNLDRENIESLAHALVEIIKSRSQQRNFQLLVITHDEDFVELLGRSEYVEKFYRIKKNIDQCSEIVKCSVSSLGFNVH

Target: USP4 lacking the ubiquitin-like domain 2 region (ΔUBL2) (human) (UniProt Q13107)
Experiment: co-IP; anti-GFP immunoprecipitation of GFP-FLAG-fused USP4 (full length from U2OS lysates; deletion mutants, cell line not stated), western blot for CtIP, RAD50 and MRE11; full length also after DNA damage induction

Substance: RAD50 (from UniProt Q92878 1-1312)
- binding: binds
